PubChem BioAssay AID1259308 | NCATS – 2017

Purpose: 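Knock-downs that increase output of a recombinant reporter protein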 (primary screen)
Cell system: human HEK293 embryonic kidney cells stably expressing firefly luciferase (HEK-CMV-Luc2-Hygro)
Reagent: single siRNA against human genes, 0.8 pmol siRNA per well
Duration: 72 h
Read-out: 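Luciferase light (ONE-Glo) measured on one replicate plate set and viability (CellTiter-Glo) on the other, scaled to a negative control siRNA, with robust z-scores and luciferase per cell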
Reading the numbers: total luciferase, z-score: higher = more reporter protein produced
Call rule: 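An siRNA counts as active if its total luciferase robust z-score exceeds 3; genes with two or more such siRNAs out of three were retested with fresh siRNAs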
Meaning of the calls: active = raised luciferase; inactive = no rise
In all, the deposit lists about 59,000 reagents; this is an unselected part. About 1,510 of all reagents (2.6%) were called active. 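Calls use total luciferase alone and ignore viability, so some active siRNAs may act by altering cell number.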 The numbers tell different reagents against one gene apart. Not all columns of the deposit are shown.

The opening 3 records as a preview:
no.	target gene	reagent	total luciferase, z-score	Outcome
1	CMTM1	1	-0.301	inactive
2	CMTM1	2	0.486	inactive
3	CMTM1	3	-1.18	inactive

The listing, from the first entry:
no.	target gene	reagent	total luciferase, z-score	Outcome
1	CMTM1	1	-0.301	inactive
2	CMTM1	2	0.486	inactive
3	CMTM1	3	-1.18	inactive
4	COPG1	1	0.808	inactive
5	COPG1	2	-0.421	inactive
6	COPG1	3	0.25	inactive
7	INPP5D	1	-1.09	inactive
8	INPP5D	2	-0.16	inactive
9	INPP5D	3	2.5	inactive
10	SHISA3	1	-0.0106	inactive
11	SHISA3	2	2.33	inactive
12	SHISA3	3	-0.248	inactive
13	EEF1B2P3	1	-0.00294	inactive
14	EEF1B2P3	2	1.05	inactive
15	EEF1B2P3	3	0.147	inactive
16	COX11	1	-0.115	inactive
17	COX11	2	-0.0469	inactive
18	COX11	3	-1	inactive
19	PPP1CC	1	-1.64	inactive
20	PPP1CC	2	-0.561	inactive
21	PPP1CC	3	-0.33	inactive
22	CCDC158	1	-1.3	inactive
23	CCDC158	2	-0.0724	inactive
24	CCDC158	3	-0.637	inactive
